Measurements as given in publication PMC4117776.
These are yes or no findings as the source states them, for the method shown. Binding seen in cells or lysates may run through a third protein. Some entries that bind do so weakly or less than the wild type. One block for each binder: values may come before it.

Biological target: T1, symplekin (mouse (endogenous in mouse ESCs)) (UniProt Q80X82)
T1 sequence: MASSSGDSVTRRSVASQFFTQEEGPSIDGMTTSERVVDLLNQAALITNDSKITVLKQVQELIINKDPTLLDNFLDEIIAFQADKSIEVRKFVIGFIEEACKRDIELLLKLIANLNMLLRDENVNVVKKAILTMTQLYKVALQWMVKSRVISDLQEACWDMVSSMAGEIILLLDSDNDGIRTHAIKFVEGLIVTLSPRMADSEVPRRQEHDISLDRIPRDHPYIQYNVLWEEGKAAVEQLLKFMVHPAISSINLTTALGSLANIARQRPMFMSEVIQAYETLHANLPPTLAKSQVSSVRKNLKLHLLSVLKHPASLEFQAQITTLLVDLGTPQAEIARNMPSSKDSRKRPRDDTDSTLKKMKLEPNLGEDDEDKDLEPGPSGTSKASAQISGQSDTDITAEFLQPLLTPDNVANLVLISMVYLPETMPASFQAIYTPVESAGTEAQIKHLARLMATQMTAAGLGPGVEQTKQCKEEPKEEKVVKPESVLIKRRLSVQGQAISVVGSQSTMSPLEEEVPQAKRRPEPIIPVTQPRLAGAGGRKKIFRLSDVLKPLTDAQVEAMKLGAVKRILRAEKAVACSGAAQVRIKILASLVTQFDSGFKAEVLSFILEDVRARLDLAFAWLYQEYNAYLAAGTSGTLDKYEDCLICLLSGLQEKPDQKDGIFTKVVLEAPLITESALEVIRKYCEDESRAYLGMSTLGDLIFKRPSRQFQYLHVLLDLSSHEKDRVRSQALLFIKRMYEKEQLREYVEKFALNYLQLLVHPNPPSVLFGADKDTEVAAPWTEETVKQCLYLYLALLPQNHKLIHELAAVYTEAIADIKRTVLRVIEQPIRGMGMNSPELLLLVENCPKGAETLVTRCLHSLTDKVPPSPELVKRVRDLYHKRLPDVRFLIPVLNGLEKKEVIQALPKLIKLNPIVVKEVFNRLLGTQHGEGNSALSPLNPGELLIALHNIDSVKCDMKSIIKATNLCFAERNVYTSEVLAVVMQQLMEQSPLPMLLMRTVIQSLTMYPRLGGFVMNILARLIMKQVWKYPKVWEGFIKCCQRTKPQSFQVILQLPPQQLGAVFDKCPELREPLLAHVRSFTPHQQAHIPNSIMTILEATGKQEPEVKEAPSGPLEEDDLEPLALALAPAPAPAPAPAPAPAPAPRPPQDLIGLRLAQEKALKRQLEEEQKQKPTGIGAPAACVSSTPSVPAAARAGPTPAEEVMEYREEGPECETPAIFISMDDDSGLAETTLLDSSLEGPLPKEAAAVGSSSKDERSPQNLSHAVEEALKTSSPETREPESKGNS
Test: co-IP; immunoprecipitation with an anti-symplekin antibody from protein lysates of wild type and Cstf2^E6 mouse ESCs; western blot for CstF-64 and τCstF-64

- binding: binds weakly
B1: τCstF-64 (protein, UniProt Q8C7E9 1-632)
chain: MSSLAVRDPAMDRSLRSVFVGNIPYEATEEQLKDIFSEVGSVVSFRLVYDRETGKPKGYGFCEYQDQETALSAMRNLNGREFSGRALRVDNAASEKNKEELKSLGPAAPIIDSPYGDPIDPEDAPESITRAVASLPPEQMFELMKQMKLCVQNSHQEARNMLLQNPQLAYALLQAQVVMRIMDPEIALKILHRKIHVTPLIPGKSQPVSGPGPGGPGPSGPGGPGPGPAPGLCPGPNVMLNQQNPPAPQPQHLPRRPVKDIPPLMQTSIQGGIPAPGPIPAAVPGPGPGSLTPGGAMQPQVGMPVVGPVPLERGQMQISDPRPPMPRGPMPSGGIPPRGLLGDAPNDPRGGTLLSVTGEVEPRGYMGPPHQGPPMHHGHDNRGPASHDMRGGPLAADPRMLIGEPRGPMIDQRGLPMDGRGGRESRGMETRPMETEVLEPRGMERRMETCAMETRGMDARGLEMRGPGPSSRGPMTGGIQGPGPINMGAGGPQGPRQVPNIAGVGNPGGTMQGAGIQGGGMQGAGMQGGGMQGAGMQGGGMQGAGMQAGMQGASMQGGMQGAGMQGASKQGGGQPSSFSPGQSQVTPQDQEKAALIMQVLQLTADQIAMLPPEQRQSILILKEQIQKSTGAS

- binding: binds
B2: CstF-64 (protein, UniProt Q8BIQ5 1-580)
chain: MAGLPVRDPAVDRSLRSVFVGNIPYEATEEQLKDIFSEVGPVVSFRLVYDRETGKPKGYGFCEYQDQETALSAMRNLNGREFSGRALRVDNAASEKNKEELKSLGTGAPVIESPYGESISPEDAPESISKAVASLPPEQMFELMKQMKLCVQNSPQEARNMLLQNPQLAYALLQAQVVMRIVDPEIALKILHRQTNIPTLISGNPQPVHVAGPGSGPNVSMNQQNPQAPQAQSLGGMHVNGAPPMMQASMPGGVPAPVQMAAAVGGPGPGSLAPAGVMQAQVGMQGAGPVPMERGQVPMQDPRAAMQRGALPTNVPTPRGLLGDAPNDPRGGTLMTVTGDVEPRAYLGPPPPPHQGPPMHHVPGHEGRGPPPHDMRGGPLAEPRPLMAEPRGPMLDQRGPPLDARGGRDPRGLDARGMEARAMEARGLDARGLEARAMEARAMEARAMEARAMEARAMEARAMEARGMDTRGPVPGPRGPMPSGIQGPNPMNMGAVVPQGSRQVPVMQGAGMQGASMQGGSQPGGFSPGQSQVTPQDHEKAALIMQVLQLTADQIAMLPPEQRQSILILKEQIQKSTGAP
